Experimental findings from article PMC5520852 are described below.

The chains behind the UniProt entries cited, without tags or fusion partners.
UniProt Q99JR8: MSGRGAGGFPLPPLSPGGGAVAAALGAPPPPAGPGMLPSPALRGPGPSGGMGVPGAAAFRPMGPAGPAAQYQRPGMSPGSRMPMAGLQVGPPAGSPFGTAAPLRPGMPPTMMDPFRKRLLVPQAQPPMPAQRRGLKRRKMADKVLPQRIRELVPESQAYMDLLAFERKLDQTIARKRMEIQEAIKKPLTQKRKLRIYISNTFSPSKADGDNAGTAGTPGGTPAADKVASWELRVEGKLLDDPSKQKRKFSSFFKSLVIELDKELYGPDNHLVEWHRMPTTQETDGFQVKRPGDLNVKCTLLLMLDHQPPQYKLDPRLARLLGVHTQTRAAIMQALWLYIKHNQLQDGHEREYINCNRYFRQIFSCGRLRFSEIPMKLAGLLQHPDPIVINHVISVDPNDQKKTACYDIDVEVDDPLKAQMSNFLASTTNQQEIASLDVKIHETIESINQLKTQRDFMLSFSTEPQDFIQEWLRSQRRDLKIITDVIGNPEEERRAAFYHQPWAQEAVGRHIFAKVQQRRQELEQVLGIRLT
UniProt Q6P9Z1: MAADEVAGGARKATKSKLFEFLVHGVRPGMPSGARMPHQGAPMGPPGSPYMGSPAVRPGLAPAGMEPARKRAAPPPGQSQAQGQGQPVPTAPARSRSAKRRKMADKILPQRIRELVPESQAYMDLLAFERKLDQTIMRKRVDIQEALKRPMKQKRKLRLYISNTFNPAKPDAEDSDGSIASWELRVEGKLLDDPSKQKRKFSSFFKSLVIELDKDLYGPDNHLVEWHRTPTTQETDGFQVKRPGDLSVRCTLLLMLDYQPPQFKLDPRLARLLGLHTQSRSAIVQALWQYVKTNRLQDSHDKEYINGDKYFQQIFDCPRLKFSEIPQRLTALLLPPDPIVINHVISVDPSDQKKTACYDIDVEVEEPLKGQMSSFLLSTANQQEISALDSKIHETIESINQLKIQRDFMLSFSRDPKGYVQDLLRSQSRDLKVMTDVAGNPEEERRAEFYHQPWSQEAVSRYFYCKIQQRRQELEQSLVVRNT
UniProt Q61466: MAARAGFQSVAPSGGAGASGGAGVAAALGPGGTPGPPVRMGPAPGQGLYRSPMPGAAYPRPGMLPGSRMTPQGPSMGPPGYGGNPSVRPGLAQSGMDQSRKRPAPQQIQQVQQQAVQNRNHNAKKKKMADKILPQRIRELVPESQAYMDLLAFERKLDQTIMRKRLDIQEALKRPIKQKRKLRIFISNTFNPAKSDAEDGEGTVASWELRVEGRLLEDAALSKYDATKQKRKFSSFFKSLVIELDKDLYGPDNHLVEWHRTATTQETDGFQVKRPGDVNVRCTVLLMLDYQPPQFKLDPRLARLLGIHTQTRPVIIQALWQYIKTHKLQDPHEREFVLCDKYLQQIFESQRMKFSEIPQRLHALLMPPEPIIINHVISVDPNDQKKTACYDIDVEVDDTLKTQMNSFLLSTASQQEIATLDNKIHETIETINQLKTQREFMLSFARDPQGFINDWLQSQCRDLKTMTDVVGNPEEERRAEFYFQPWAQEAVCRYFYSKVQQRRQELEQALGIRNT
UniProt Q3TKT4: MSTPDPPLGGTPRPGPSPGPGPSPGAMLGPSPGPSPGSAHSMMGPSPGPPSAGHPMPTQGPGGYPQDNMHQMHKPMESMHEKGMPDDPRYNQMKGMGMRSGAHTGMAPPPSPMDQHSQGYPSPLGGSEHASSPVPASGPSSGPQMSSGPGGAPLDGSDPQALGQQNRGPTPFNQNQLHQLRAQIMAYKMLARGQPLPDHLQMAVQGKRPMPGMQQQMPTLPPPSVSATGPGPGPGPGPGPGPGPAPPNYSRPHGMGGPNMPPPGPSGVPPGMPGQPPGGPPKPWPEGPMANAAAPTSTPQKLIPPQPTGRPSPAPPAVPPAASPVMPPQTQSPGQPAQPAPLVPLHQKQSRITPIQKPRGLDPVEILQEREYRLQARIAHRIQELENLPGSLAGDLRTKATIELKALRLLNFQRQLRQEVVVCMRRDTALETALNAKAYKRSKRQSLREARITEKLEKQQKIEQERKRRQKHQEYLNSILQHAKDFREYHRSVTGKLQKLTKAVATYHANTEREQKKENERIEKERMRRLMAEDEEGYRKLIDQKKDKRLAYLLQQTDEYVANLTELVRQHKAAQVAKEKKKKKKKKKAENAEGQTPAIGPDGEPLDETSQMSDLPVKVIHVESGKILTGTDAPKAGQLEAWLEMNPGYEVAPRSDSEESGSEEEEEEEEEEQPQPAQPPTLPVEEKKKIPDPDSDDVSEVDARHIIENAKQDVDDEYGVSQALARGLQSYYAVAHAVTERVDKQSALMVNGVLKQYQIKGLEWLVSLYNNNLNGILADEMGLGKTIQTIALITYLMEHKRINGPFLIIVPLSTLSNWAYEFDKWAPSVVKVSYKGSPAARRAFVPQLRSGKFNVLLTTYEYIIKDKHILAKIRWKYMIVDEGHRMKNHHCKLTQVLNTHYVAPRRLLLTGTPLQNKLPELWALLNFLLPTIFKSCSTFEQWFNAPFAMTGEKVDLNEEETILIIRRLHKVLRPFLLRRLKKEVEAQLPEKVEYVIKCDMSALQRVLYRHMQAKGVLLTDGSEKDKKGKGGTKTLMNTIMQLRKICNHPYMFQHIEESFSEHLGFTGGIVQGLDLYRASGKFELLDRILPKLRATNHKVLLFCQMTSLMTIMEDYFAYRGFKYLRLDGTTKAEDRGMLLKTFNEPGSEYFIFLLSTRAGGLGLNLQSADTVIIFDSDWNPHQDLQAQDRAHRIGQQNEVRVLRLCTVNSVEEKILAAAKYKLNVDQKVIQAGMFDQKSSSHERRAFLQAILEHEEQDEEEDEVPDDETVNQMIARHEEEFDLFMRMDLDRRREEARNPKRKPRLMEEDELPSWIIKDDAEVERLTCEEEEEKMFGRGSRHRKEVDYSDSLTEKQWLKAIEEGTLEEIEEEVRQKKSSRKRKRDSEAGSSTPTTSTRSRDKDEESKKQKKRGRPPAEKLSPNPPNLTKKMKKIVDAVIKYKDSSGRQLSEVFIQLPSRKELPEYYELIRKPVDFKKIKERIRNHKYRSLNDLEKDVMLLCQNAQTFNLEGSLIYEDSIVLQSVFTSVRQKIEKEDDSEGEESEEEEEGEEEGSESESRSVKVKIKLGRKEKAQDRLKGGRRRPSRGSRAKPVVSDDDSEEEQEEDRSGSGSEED

These are yes or no findings as the source states them, for the method shown. In cells and extracts the contact can be indirect. A yes stands for co-enrichment or nearness to the bait. Other partners may have been found. No binding means not detected with the bait.

In this test the target is HA-tagged Baf60b (full length) (UniProt Q99JR8). Description: affinity purification with mass spectrometry; co-IP samples of Baf60b and the ΔSWIB mutant separated on 8% SDS-PAGE, in-gel trypsin digestion, LC-MS/MS (Orbitrap Fusion), MaxQuant LFQ normalised to Baf60b (Smarcd2).
Take Baf60c (from UniProt Q6P9Z1 1-483): the binding result was “no binding”. Next, Baf60a (from UniProt Q61466 1-515): “no binding”; Brg1 (from UniProt Q3TKT4 1-1613): “binds”.
